Results: the supplement of paper PMC10849652
The list shows a part of the results. Residues, ends and D or L forms follow the SMILES beside them. *: point of attachment. Cbz = O=C(OCc1ccccc1)*

Sequences of proteins named here, by UniProt entry; tags and fusion partners are left off. A change or cut given only in a name is not applied to a line headed by its entry.
UniProt Q969H6: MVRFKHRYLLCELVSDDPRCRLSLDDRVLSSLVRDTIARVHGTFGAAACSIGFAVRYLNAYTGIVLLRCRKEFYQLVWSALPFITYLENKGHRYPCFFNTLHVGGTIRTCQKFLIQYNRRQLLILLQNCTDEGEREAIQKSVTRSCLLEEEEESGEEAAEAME
UniProt O15318: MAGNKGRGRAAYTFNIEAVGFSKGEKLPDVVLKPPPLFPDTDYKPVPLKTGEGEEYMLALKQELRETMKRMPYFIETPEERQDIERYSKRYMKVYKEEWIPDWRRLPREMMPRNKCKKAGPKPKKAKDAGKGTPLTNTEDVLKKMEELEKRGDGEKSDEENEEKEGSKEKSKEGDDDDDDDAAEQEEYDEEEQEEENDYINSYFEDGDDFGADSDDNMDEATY
UniProt Q9H2H8: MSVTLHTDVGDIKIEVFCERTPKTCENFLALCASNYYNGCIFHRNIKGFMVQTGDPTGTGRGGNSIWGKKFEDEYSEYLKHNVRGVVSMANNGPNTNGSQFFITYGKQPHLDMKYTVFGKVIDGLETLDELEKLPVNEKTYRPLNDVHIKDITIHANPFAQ
UniProt P30405: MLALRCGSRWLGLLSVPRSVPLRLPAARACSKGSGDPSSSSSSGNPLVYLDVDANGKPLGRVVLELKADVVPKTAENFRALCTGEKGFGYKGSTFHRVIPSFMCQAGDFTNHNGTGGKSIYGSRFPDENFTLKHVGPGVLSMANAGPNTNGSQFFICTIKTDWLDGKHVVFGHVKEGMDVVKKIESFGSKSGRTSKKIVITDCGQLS
UniProt O60568: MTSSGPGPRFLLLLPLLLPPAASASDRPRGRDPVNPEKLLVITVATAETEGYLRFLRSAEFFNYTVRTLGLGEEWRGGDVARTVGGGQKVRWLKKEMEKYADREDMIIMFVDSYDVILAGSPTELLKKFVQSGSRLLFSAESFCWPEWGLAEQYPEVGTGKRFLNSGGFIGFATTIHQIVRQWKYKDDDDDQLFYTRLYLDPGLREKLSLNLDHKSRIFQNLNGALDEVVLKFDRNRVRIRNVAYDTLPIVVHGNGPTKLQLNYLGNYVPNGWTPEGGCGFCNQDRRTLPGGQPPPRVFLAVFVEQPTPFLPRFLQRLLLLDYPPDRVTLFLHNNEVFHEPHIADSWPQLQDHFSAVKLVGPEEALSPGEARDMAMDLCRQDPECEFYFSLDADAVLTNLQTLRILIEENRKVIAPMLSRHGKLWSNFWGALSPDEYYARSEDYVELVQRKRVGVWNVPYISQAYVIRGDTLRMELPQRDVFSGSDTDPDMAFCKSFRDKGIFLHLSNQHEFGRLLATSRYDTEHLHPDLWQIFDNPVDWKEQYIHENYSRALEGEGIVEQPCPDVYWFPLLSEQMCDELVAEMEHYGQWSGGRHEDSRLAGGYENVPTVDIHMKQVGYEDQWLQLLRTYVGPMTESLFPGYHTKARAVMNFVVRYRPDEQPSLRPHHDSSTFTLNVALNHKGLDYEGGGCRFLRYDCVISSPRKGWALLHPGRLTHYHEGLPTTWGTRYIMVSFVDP
UniProt Q7Z4H8: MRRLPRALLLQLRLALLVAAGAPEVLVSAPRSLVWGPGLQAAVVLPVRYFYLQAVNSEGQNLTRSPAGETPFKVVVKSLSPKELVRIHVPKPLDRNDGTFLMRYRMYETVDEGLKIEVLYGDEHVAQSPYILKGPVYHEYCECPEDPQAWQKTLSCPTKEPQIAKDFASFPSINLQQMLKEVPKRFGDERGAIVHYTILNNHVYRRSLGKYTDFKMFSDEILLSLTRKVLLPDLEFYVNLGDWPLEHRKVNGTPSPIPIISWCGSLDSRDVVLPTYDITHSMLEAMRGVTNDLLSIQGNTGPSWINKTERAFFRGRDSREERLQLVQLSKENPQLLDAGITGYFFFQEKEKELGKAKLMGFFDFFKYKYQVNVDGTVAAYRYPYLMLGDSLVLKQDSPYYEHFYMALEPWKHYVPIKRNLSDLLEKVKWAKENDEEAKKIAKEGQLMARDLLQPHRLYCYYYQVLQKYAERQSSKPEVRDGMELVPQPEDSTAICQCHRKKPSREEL
UniProt Q9UHN1: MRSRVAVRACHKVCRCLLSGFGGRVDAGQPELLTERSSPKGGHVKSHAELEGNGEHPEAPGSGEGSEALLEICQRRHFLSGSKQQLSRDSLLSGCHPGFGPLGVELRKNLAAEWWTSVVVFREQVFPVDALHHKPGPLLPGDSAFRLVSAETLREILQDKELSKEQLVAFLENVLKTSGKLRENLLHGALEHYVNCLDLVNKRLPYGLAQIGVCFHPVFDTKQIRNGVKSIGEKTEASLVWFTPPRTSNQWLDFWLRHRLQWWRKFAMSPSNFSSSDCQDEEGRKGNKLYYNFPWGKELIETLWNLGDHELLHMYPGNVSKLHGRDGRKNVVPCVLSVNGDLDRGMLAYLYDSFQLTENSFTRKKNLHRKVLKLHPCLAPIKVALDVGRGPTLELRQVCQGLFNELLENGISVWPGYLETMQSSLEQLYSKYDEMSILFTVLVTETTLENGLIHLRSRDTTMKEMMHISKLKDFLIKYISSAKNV
UniProt O75334: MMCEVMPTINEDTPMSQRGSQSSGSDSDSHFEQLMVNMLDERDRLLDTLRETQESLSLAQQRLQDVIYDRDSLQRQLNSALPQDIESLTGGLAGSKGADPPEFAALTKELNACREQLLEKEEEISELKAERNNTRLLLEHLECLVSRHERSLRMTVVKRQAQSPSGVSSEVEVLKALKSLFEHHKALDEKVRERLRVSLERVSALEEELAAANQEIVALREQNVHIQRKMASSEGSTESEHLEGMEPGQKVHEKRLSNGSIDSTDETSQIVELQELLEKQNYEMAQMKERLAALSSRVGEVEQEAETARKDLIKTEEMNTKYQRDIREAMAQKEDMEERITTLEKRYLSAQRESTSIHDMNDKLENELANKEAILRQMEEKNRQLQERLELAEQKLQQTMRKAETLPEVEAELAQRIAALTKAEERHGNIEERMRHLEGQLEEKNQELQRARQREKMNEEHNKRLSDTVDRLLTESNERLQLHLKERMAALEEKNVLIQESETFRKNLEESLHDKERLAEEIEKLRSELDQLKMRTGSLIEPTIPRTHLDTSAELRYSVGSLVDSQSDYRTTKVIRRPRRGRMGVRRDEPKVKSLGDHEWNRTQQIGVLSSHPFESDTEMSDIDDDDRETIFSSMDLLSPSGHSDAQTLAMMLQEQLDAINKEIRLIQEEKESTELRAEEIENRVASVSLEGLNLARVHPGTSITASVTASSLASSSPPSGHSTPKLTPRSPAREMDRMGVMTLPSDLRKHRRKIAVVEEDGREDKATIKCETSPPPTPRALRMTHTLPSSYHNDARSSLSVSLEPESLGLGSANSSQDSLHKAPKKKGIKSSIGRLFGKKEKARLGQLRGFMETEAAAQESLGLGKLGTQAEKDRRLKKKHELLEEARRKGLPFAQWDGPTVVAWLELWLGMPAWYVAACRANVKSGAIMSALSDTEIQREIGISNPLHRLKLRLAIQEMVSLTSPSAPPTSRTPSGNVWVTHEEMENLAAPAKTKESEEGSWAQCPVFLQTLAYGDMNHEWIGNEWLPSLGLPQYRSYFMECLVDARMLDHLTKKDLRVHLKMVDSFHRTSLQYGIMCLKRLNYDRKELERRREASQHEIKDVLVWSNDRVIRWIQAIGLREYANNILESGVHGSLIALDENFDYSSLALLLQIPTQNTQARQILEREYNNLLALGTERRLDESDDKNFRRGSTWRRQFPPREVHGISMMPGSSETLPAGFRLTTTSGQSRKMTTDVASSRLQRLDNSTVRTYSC
UniProt Q8IY26: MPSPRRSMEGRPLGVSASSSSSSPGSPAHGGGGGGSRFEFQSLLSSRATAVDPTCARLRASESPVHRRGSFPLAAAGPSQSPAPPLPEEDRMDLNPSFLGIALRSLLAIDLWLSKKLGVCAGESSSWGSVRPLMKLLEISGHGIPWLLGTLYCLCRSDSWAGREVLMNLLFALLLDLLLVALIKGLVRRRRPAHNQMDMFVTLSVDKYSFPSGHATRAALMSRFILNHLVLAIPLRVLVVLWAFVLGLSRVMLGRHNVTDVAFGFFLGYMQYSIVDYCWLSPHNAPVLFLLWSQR
UniProt O94903: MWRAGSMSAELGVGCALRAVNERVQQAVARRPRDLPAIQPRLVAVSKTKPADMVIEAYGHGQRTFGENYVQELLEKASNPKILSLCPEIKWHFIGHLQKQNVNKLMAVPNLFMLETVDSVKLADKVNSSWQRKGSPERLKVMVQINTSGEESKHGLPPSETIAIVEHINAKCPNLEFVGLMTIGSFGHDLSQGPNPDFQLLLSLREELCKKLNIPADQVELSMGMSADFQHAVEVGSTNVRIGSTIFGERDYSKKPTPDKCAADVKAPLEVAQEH
UniProt Q9UNP9: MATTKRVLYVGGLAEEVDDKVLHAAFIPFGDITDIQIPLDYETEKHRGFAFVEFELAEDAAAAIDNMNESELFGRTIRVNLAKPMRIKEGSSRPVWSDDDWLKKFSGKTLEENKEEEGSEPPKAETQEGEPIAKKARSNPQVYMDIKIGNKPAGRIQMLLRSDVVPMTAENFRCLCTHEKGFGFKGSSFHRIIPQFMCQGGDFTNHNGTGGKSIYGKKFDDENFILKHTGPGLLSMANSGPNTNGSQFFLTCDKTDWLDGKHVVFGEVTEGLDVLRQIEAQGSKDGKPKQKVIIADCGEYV
UniProt P54098: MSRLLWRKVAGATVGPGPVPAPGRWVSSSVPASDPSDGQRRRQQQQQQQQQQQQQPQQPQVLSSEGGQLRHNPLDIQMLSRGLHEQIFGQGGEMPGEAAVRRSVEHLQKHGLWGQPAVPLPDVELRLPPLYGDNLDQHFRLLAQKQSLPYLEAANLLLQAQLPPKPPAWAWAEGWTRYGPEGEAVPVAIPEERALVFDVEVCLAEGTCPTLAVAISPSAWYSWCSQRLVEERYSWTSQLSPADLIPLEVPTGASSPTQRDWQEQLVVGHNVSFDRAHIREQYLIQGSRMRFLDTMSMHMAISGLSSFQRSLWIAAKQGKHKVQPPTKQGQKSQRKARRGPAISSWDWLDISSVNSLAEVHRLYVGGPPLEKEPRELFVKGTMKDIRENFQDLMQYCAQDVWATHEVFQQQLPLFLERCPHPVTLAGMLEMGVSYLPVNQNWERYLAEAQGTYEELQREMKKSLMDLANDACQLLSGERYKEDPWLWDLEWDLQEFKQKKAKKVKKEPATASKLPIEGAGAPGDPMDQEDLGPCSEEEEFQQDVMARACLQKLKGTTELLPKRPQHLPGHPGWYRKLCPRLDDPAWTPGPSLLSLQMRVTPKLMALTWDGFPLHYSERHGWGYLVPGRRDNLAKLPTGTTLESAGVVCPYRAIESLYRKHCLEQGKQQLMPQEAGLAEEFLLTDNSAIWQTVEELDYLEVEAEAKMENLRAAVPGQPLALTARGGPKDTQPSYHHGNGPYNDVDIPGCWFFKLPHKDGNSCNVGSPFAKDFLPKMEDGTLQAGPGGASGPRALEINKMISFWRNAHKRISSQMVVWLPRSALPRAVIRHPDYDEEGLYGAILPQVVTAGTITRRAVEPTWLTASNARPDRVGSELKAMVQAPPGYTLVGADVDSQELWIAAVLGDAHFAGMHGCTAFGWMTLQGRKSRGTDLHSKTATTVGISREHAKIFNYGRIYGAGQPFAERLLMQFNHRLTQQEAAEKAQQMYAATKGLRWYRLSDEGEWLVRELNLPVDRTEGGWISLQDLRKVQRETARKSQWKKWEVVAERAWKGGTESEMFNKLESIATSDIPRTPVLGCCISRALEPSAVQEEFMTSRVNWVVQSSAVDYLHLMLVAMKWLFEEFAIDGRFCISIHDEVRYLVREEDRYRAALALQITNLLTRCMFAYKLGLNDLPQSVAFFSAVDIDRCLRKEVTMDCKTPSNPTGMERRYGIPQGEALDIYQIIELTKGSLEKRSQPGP
UniProt O75688: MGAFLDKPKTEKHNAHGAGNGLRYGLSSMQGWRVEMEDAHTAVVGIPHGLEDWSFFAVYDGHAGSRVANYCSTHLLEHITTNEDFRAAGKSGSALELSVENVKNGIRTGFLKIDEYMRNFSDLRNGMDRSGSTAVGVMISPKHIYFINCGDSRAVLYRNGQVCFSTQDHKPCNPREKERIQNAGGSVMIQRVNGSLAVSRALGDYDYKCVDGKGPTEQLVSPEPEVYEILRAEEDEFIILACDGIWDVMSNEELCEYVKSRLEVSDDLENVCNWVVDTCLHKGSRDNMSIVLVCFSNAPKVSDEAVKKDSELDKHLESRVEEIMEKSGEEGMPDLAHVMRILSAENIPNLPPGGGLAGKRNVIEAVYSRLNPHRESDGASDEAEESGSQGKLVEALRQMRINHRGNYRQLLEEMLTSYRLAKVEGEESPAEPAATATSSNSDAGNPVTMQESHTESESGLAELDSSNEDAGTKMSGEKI
UniProt O43447: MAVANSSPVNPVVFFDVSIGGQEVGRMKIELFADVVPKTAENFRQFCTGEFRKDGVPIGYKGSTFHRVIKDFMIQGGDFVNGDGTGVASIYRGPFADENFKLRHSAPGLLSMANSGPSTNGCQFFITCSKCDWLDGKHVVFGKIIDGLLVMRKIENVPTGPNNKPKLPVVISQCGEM

What was measured:
Experiment in all cases: log2 fold change, soluble protein after heating vs DMSO (PISA); higher = thermal stabilisation; K562 cells, 10 uM, 30 min; active = over 0.2 and 3.5 SD of the protein, either way, in both replicates (recomputed)
erlotinib = compound: C#Cc1cccc(Nc2ncnc3cc(OCCOC)c(OCCOC)cc23)c1 [erlotinib]
Outline: (§1)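 K562 cells at 2×10^6 cells/mL were treated for 30 min with 10 μM compound, and aliquots were heated for 3 min over 48°C-58°C before pooling. Extraction used PBS with 0.5% NP-40 at 4°C, and soluble protein was the supernatant after 21,000xg for 90 min, measured by TMTpro 16plex LC-MS/MS with channel sums equalised. Thermal stability values, relative to control samples and from duplicates, are log2 fold changes.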

[1] = compound: C/C(=N\NC(=O)C1=CC(=CC=C1)S(=O)(=O)N2CCOCC2)/C3=C(C=CC(=C3)Cl)O
Outline: as §1

[2] = compound: C1=CC(=C(C=C1Cl)C2=NC3=NC=CN=C3C(=N2)NC4=CC=NC=C4)F
Outline: as §1

[3] = compound: C1=CC(=CC=C1C2=NC3=C(N2)C=C(C=C3)C(=O)N)OC4=CC=C(C=C4)Cl
Outline: as §1

[4] = compound: C1=CC2=C(C=CC(=C2)/C=C\3/C(=O)NC(=NCC4=CC=CS4)S3)N=C1
Outline: as §1

[5] = compound: C1=CC2=NC=CN=C2C=C1/C=C/3\C(=O)NC(=O)S3
Outline: as §1

[6] = compound: C1=CC=C(C=C1)C2=NC(=C(N2)C3=CC=NC=C3)C4=CC(=C(C=C4)Cl)O
Outline: as §1

[7] = compound: C1=CC=C2C(=C1)C3=NNC4=CC=CC(=C43)C2=O
Outline: as §1

[8] = compound: C1CCN(C1)C(=O)NC2=CC=CC(=C2)NC3=NC=C(C(=N3)NCCC4=CN=CN4)Br
Outline: as §1

[9] = compound: C1CN(CCC1(CC2=CC=C(C=C2)Cl)N)C3=NC=NC4=C3C=CN4
Outline: as §1

IRAK-1-4 Inhibitor I = compound: C1COCCN1CCN2C3=CC=CC=C3N=C2NC(=O)C4=CC(=CC=C4)[N+](=O)[O-] [IRAK-1-4 Inhibitor I]
Outline: as §1

ibrutinib = compound: C=CC(=O)N1CCC[C@@H](n2nc(-c3ccc(Oc4ccccc4)cc3)c3c(N)ncnc32)C1 [ibrutinib]
Outline: as §1

[10] = compound: CC(=O)c1cnc2ccc(-c3cc(Cl)c(O)c(Cl)c3)nc2c1N[C@H]1CC[C@H](CN(C)C)CC1
Outline: as §1

ralimetinib = compound: CC(C)(C)Cn1c(N)nc2ccc(-c3[nH]c(C(C)(C)C)nc3-c3ccc(F)cc3)nc21 [ralimetinib]
Outline: as §1

[11] = compound: CC(C)(O)CC(=O)NCCn1ccc2ncnc(Nc3ccc(Oc4cccc(C(F)(F)F)c4)c(Cl)c3)c21
Outline: as §1

[12] = compound: CC(C)C1=C2N=C(C=C(N2N=C1)NCC3=CC=CC=C3)NCCCCCCN
Outline: as §1

[13] = compound: CC(C)C[C@@H](C=O)NC(=O)[C@H](CC(C)C)NC(=O)[C@H](CC(C)C)NC(=O)OCc1ccccc1
Outline: as §1

pinometostat = compound: CC(C)N(C[C@H]1O[C@@H](n2cnc3c(N)ncnc32)[C@H](O)[C@@H]1O)[C@H]1C[C@@H](CCc2nc3cc(C(C)(C)C)ccc3[nH]2)C1 [pinometostat]
Outline: as §1

[14] = compound: CC1=C(C(CC(=O)N1)C2=CC=C(C=C2)C(F)(F)F)C(=O)NC3=C(C=C4C(=C3)C=NN4)F
Outline: as §1

[15] = compound: CC1=C(C2=C(C=C1)C(=O)C3=CC=CC=C3N2CCCN)C
Outline: as §1

Measured: log2 fold change

POP5 (UniProt Q969H6)
inactive: erlotinib -0.098 | [1] 0.032 | [2] -0.003 | [3] 0.082 | [4] -0.071 | [5] 0 | [6] -0.021 | [7] 0.025 | [8] -0.009 | [9] -0.022 | IRAK-1-4 Inhibitor I 0.005 | ibrutinib 0.083 | [10] -0.004 | ralimetinib 0.019 | [11] -0.094 | [12] 0.1 | [13] -0.022 | pinometostat -0.043 | [14] -0.028 | [15] -0.065

POLR3G (UniProt O15318)
inactive: erlotinib 0.09 | [1] -0.07 | [2] 0.078 | [3] 0.096 | [4] -0.001 | [5] 0.074 | [6] 0.017 | [7] 0 | [8] -0.07 | [9] 0.043 | IRAK-1-4 Inhibitor I 0.04 | ibrutinib -0.036 | [10] -0.123 | ralimetinib 0.016 | [11] -0.069 | [12] 0.092 | [13] -0.026 | pinometostat -0.025 | [14] 0.014 | [15] -0.12

POLR2F (UniProt P61218)
inactive: erlotinib -0.005 | [1] 0.065 | [2] 0.144 | [3] -0.028 | [4] -0.255 | [5] 0.116 | [6] -0.066 | [7] 0.031 | [8] -0.27 | [9] 0.232 | IRAK-1-4 Inhibitor I -0.117 | ibrutinib 0.012 | [10] 0.346 | ralimetinib 0.057 | [11] -0.083 | [12] 0.214 | [13] 0.125 | pinometostat -0.218 | [14] 0.092 | [15] -0.017

PPIL3 isoform 2 (UniProt Q9H2H8)
inactive: erlotinib -0.023 | [1] 0.047 | [2] 0.084 | [3] -0.026 | [4] -0.086 | [5] -0.013 | [6] -0.147 | [7] 0.116 | [8] 0.07 | [9] -0.085 | IRAK-1-4 Inhibitor I 0.029 | ibrutinib 0.039 | [10] -0.021 | ralimetinib 0.036 | [11] -0.073 | [12] -0.017 | [13] -0.006 | pinometostat 0.007 | [14] -0.123 | [15] -0.011

PPIF (UniProt P30405)
inactive: erlotinib 0.054 | [1] 0.043 | [2] -0.117 | [3] -0.084 | [4] 0.064 | [5] -0.022 | [6] -0.011 | [7] 0.04 | [8] 0.008 | [9] 0.021 | IRAK-1-4 Inhibitor I 0.092 | ibrutinib 0.012 | [10] -0.015 | ralimetinib -0.056 | [11] 0.003 | [12] 0.008 | [13] 0.05 | pinometostat 0 | [14] -0.011 | [15] 0.048

PLOD3 (UniProt O60568)
inactive: erlotinib -0.077 | [1] -0.033 | [2] -0.1 | [3] 0.018 | [4] 0.048 | [5] 0.054 | [6] -0.013 | [7] 0.018 | [8] 0.045 | [9] -0.039 | IRAK-1-4 Inhibitor I -0.038 | ibrutinib -0.04 | [10] -0.014 | ralimetinib 0.008 | [11] 0.065 | [12] 0.018 | [13] 0.026 | pinometostat 0.071 | [14] 0.007 | [15] -0.004

POGLUT3 (UniProt Q7Z4H8)
inactive: erlotinib -0.041 | [1] 0.031 | [2] 0.024 | [3] 0.027 | [4] -0.013 | [5] 0.005 | [6] -0.037 | [7] 0.033 | [8] -0.018 | [9] -0.015 | IRAK-1-4 Inhibitor I -0.051 | ibrutinib -0.038 | [10] -0.005 | ralimetinib -0.02 | [11] -0.012 | [12] -0.065 | [13] 0.028 | pinometostat 0.003 | [14] 0.039 | [15] 0.01

POLG2 (UniProt Q9UHN1)
inactive: erlotinib -0.029 | [1] -0.042 | [2] -0.008 | [3] 0.017 | [4] -0.038 | [5] -0.016 | [6] -0.038 | [7] 0 | [8] -0.006 | [9] 0.001 | IRAK-1-4 Inhibitor I 0.016 | ibrutinib 0.072 | [10] 0.022 | ralimetinib -0.014 | [11] 0.007 | [12] 0.051 | [13] 0.05 | pinometostat -0.047 | [14] -0.008 | [15] 0.087

PPFIA2 (UniProt O75334)
inactive: erlotinib -0.109 | [1] 0.144 | [2] -0.148 | [3] 0.029 | [4] -0.045 | [5] 0.011 | [6] 0.102 | [7] 0.08 | [8] 0.021 | [9] 0.206 | IRAK-1-4 Inhibitor I -0.344 | ibrutinib -0.019 | [10] 0.006 | ralimetinib 0.302 | [11] 0.013 | [12] 0.27 | [13] 0.101 | pinometostat 0.085 | [14] 0.15 | [15] -0.054

PLPP6 (UniProt Q8IY26)
inactive: erlotinib 0.095 | [1] 0.176 | [2] 0.062 | [3] 0.083 | [4] -0.197 | [5] 0.017 | [6] 0.014 | [7] -0.054 | [8] -0.105 | [9] 0.066 | IRAK-1-4 Inhibitor I -0.149 | ibrutinib -0.098 | [10] 0.111 | ralimetinib 0.019 | [11] -0.099 | [12] 0.01 | [13] -0.071 | pinometostat -0.02 | [14] 0.012 | [15] -0.148

PLPBP (UniProt O94903)
inactive: erlotinib 0.113 | [1] 0.09 | [2] 0.066 | [3] -0.126 | [4] 0.036 | [5] -0.004 | [6] -0.249 | [7] -0.037 | [8] -0.113 | [9] 0.001 | IRAK-1-4 Inhibitor I -0.079 | ibrutinib -0.076 | [10] -0.099 | ralimetinib -0.011 | [11] -0.137 | [12] -0.144 | [13] 0.052 | pinometostat 0.005 | [14] -0.057 | [15] 0.03

POLR3F (UniProt Q9H1D9)
inactive: erlotinib 0.024 | [1] 0.005 | [2] 0.075 | [3] 0.067 | [4] 0.006 | [5] -0.025 | [6] -0.05 | [7] -0.041 | [8] -0.008 | [9] 0.026 | IRAK-1-4 Inhibitor I 0.045 | ibrutinib -0.024 | [10] -0.027 | ralimetinib -0.017 | [11] 0.022 | [12] -0.022 | [13] -0.04 | pinometostat -0.003 | [14] -0.013 | [15] -0.017

PPIE (UniProt Q9UNP9)
inactive: erlotinib 0.016 | [1] -0.017 | [2] 0.065 | [3] -0.053 | [4] -0.03 | [5] 0.063 | [6] 0.071 | [7] -0.025 | [8] 0.049 | [9] 0.037 | IRAK-1-4 Inhibitor I 0.019 | ibrutinib -0.042 | [10] 0.067 | ralimetinib 0.002 | [11] 0.038 | [12] 0.096 | [13] -0.06 | pinometostat -0.008 | [14] -0.019 | [15] -0.081

2 entries drawn at random from the list so far:
POLG2 (UniProt Q9UHN1)
inactive: erlotinib -0.029 | [1] -0.042 | [2] -0.008 | [3] 0.017 | [4] -0.038 | [5] -0.016 | [6] -0.038 | [7] 0 | [8] -0.006 | [9] 0.001 | IRAK-1-4 Inhibitor I 0.016 | ibrutinib 0.072 | [10] 0.022 | ralimetinib -0.014 | [11] 0.007 | [12] 0.051 | [13] 0.05 | pinometostat -0.047 | [14] -0.008 | [15] 0.087

PLOD3 (UniProt O60568)
inactive: erlotinib -0.077 | [1] -0.033 | [2] -0.1 | [3] 0.018 | [4] 0.048 | [5] 0.054 | [6] -0.013 | [7] 0.018 | [8] 0.045 | [9] -0.039 | IRAK-1-4 Inhibitor I -0.038 | ibrutinib -0.04 | [10] -0.014 | ralimetinib 0.008 | [11] 0.065 | [12] 0.018 | [13] 0.026 | pinometostat 0.071 | [14] 0.007 | [15] -0.004

Following part.

POLG (UniProt P54098)
inactive: erlotinib 0.052 | [1] -0.213 | [2] 0.035 | [3] 0.039 | [4] 0.308 | [5] 0.012 | [6] -0.175 | [7] -0.208 | [8] -0.102 | [9] 0.191 | IRAK-1-4 Inhibitor I 0.136 | ibrutinib -0.034 | [10] -0.129 | ralimetinib -0.213 | [11] -0.089 | [12] -0.031 | [13] 0.058 | pinometostat 0.115 | [14] -0.074 | [15] -0.022

PPM1B (UniProt O75688)
inactive: erlotinib 0.025 | [1] 0.045 | [2] 0.064 | [3] 0.086 | [4] 0.022 | [5] -0.001 | [6] 0.017 | [7] 0.055 | [8] -0.004 | [9] -0.094 | IRAK-1-4 Inhibitor I 0.02 | ibrutinib -0.033 | [10] -0.005 | ralimetinib -0.022 | [11] -0.014 | [12] -0.004 | [13] -0.016 | pinometostat 0.003 | [14] -0.029 | [15] -0.021

PPIH (UniProt O43447)
inactive: erlotinib 0.05 | [1] 0.022 | [2] 0.088 | [3] -0.026 | [4] 0.031 | [5] 0.027 | [6] 0.012 | [7] 0.019 | [8] -0.003 | [9] -0.002 | IRAK-1-4 Inhibitor I 0.036 | ibrutinib -0.054 | [10] -0.04 | ralimetinib -0.041 | [11] -0.095 | [12] -0.001 | [13] -0.017 | pinometostat -0.02 | [14] 0.003 | [15] 0.025
